Measurements: publication doi:10.1101/2023.08.23.554462
Results are given in words; binding and its absence hold for the method and conditions named. Binding seen in cells or lysates may run through a third protein. These calls come from enrichment with a bait or labelling near it, and not all partners need be listed.

Amino acid sequences for entries named in this document (tags omitted).
UniProt Q9UNE7: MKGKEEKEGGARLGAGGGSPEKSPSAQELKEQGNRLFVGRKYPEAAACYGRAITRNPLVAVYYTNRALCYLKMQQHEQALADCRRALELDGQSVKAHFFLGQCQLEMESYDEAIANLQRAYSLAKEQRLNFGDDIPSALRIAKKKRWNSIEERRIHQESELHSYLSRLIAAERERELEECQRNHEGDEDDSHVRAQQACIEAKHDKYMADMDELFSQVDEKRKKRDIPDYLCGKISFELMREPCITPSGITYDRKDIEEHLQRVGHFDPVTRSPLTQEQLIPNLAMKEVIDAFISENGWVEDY
UniProt P34932: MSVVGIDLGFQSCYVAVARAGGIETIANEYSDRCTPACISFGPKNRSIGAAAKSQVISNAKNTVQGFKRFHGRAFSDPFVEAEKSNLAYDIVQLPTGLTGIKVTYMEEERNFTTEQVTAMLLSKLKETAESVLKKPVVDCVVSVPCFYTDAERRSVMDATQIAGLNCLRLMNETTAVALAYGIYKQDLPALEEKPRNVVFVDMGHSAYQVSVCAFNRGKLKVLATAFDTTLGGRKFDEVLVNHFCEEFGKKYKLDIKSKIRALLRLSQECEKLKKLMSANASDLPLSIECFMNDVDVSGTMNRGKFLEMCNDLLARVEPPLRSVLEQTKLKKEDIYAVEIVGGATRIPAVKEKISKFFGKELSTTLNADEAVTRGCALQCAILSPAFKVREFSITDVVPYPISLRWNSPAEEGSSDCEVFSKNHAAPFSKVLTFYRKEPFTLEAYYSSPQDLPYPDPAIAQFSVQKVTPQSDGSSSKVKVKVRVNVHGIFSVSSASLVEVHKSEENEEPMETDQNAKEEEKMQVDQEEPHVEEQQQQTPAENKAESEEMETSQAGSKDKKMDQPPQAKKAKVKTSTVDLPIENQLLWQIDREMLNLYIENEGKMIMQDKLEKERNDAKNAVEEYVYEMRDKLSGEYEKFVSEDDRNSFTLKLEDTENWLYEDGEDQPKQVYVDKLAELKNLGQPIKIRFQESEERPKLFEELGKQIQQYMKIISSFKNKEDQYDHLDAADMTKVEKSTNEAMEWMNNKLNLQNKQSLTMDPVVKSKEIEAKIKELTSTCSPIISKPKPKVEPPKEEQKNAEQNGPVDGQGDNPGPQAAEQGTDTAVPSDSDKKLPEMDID
UniProt Q92598: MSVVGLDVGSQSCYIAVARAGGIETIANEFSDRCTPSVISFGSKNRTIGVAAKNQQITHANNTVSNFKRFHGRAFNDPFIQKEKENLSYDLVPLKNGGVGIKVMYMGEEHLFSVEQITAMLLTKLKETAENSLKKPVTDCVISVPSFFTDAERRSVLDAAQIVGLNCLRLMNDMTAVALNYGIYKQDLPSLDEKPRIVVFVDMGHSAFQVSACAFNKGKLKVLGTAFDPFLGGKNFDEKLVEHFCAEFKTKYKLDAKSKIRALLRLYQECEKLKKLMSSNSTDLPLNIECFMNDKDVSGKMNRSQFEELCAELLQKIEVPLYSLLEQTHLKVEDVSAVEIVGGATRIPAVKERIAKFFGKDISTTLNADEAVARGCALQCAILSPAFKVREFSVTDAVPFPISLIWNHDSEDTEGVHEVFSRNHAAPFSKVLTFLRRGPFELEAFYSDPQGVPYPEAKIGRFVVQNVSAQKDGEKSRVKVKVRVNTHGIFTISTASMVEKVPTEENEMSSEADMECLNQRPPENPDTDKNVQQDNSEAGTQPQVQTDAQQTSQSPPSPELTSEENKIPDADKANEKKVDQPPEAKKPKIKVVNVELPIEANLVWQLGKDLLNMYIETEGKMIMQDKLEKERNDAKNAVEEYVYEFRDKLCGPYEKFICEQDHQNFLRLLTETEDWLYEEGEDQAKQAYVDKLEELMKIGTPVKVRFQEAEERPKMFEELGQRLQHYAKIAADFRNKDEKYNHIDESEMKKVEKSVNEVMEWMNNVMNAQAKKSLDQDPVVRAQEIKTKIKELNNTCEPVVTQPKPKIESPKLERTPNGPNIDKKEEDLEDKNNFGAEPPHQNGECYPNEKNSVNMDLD
UniProt P28066: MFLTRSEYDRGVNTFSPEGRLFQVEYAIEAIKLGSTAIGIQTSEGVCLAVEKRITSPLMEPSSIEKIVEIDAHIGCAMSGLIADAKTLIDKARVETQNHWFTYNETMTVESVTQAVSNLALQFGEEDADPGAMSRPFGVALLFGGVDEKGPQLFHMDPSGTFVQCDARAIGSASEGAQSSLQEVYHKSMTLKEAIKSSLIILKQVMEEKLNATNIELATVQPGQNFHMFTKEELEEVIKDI
UniProt P62333: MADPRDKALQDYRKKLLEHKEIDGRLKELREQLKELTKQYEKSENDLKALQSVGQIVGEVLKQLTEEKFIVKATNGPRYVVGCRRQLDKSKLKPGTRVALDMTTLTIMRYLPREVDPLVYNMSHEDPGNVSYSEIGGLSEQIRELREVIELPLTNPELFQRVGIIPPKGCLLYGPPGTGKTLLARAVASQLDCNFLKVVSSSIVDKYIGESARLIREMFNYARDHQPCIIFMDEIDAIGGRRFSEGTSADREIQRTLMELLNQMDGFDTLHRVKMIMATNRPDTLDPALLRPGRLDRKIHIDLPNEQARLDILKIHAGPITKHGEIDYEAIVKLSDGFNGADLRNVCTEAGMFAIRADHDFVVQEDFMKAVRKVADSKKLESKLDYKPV
UniProt Q15008: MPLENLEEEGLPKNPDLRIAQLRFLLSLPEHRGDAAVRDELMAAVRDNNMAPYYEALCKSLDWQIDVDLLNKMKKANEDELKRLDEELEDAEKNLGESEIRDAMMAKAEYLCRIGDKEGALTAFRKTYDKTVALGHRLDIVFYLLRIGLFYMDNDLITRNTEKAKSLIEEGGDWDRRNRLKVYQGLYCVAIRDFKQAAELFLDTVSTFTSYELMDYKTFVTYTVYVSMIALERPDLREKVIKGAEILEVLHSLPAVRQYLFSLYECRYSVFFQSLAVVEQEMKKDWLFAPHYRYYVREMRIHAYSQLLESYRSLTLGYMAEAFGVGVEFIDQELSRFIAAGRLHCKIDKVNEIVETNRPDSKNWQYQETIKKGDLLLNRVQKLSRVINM
UniProt Q9BYJ9: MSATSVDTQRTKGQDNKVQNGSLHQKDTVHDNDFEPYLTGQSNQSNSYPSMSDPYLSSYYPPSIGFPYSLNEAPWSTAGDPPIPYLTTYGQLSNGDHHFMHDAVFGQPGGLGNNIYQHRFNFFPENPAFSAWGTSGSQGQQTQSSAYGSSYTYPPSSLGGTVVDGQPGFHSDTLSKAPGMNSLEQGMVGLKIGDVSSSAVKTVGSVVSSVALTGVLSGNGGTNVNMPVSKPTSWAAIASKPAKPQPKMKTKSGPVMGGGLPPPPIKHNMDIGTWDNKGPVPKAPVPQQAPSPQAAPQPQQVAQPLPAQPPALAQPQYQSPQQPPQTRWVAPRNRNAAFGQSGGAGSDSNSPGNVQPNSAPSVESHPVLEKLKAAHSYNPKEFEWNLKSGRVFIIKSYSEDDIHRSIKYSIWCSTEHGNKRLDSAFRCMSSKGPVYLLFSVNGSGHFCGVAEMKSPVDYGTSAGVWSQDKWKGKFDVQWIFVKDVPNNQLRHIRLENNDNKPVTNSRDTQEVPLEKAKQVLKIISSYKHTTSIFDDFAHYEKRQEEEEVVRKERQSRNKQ
UniProt Q5VYK3: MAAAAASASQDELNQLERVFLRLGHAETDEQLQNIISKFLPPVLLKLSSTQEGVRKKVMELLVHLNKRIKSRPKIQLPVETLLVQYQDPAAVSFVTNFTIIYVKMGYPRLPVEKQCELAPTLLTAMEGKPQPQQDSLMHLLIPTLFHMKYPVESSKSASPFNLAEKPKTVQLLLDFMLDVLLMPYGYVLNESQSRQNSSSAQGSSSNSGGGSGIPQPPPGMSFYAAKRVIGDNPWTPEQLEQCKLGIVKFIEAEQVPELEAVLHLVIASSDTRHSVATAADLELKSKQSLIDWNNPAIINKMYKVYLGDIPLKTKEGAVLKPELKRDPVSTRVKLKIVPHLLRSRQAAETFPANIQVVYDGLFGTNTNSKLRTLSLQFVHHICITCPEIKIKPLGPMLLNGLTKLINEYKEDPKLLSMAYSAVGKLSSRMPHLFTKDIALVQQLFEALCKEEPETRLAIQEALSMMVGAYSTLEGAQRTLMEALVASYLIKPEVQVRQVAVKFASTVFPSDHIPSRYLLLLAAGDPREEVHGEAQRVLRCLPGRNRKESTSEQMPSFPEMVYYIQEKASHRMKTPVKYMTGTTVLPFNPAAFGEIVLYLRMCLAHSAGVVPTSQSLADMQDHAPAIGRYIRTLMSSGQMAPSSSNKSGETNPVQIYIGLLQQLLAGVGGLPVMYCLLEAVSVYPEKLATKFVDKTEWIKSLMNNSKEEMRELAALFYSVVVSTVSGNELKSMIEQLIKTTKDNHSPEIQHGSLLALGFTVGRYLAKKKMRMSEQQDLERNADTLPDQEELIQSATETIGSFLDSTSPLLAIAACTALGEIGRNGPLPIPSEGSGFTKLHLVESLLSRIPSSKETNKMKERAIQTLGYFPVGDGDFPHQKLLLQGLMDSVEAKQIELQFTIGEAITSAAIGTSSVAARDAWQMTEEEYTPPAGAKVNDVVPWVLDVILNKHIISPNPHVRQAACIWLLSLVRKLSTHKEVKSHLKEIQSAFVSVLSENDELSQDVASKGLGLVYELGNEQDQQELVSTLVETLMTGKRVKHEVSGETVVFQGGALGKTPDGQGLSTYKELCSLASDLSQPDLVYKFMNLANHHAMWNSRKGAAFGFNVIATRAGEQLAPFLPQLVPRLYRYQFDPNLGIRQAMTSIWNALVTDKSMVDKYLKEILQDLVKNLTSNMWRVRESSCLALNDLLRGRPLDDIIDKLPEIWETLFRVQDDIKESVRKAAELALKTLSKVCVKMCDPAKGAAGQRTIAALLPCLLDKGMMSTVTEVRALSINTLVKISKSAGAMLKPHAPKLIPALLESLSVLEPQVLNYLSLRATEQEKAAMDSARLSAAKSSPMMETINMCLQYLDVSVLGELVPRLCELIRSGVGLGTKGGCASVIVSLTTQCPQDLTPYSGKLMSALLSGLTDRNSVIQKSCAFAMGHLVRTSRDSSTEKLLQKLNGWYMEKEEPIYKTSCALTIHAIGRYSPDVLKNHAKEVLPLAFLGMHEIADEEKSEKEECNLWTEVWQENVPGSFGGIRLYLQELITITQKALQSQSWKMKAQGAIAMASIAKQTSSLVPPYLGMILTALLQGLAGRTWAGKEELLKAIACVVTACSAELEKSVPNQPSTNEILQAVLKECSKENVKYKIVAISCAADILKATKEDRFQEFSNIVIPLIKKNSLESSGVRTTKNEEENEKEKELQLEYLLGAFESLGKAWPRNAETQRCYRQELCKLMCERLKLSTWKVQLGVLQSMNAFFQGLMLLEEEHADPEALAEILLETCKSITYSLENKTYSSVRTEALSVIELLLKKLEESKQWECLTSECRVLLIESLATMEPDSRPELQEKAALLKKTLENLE
UniProt Q58FF8: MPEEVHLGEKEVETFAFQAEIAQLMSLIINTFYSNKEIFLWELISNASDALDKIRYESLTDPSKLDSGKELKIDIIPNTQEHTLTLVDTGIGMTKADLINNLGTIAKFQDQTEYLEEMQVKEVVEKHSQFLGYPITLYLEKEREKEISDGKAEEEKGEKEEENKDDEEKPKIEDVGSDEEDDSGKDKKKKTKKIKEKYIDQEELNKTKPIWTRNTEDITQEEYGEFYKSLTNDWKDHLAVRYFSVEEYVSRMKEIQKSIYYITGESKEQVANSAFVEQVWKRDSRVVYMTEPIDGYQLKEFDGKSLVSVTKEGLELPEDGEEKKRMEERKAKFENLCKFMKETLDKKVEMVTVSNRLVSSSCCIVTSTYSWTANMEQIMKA
UniProt P54652: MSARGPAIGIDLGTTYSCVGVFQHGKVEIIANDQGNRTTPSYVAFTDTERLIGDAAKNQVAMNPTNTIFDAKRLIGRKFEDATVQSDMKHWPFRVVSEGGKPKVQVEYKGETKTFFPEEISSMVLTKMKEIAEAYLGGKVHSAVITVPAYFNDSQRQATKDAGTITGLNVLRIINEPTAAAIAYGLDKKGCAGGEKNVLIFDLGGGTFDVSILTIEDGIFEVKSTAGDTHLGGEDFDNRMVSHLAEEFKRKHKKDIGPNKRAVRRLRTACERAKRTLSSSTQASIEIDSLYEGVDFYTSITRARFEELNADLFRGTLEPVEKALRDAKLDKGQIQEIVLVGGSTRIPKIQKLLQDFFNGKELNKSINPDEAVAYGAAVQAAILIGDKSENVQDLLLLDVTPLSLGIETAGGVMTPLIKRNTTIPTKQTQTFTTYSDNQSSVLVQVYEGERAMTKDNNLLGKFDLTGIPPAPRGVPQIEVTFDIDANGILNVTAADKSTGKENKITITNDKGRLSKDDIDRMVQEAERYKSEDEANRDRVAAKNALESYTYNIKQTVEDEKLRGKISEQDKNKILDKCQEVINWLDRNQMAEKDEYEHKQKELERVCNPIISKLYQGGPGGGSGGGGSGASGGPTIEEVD

Target: StrepII-tagged STUB1 (STIP1 homology and U-box protein 1), stably expressed in OS-RC-2 cells (UniProt Q9UNE7)
Test: affinity purification with mass spectrometry

Molecule | binding
HSPA4 (from UniProt P34932 1-840) | binds
HSPH1 (from UniProt Q92598 1-858) | binds
PSMA5 (from UniProt P28066 1-241) | binds
PSMC6 (from UniProt P62333 1-389) | binds
PSMD6 (from UniProt Q15008 1-389) | binds
YTHDF1 (endogenous, found by AP-MS) (from UniProt Q9BYJ9 1-559) | binds
HSPBP1 (protein, UniProt Q9NZL4 1-359) MSDEGSRGSRLPLALPPASQGCSSGGGGGGSSAGGSGNSRPPRNLQGLLQMAITAGSEEPDPPPEPMSEERRQWLQEAMSAAFRGQREEVEQMKSCLRVLSQPMPPTAGEAEQAADQQEREGALELLADLCENMDNAADFCQLSGMHLLVGRYLEAGAAGLRWRAAQLIGTCSQNVAAIQEQVLGLGALRKLLRLLDRDACDTVRVKALFAISCLVREQEAGLLQFLRLDGFSVLMRAMQQQVQKLKVKSAFLLQNLLVGHPEHKGTLCSMGMVQQLVALVRTEHSPFHEHVLGALCSLVTDFPQGVRECREPELGLEELLRHRCQLLQQHEEYQEELEFCEKLLQTCFSSPADDSMDR | binds

Now from value to molecule:

binding | Molecule
binds | ECPAS (from UniProt Q5VYK3 1-1845)
binds | HSP90AB2P (from UniProt Q58FF8 1-381)
binds | HSPA2 (from UniProt P54652 1-639)
binds | HSPA4L (from UniProt O95757 1-839)
